At least one structure is not confirmed: it was looked up by name or label, or the drawing left a doubt.
System: LPS-induced acute lung injury in mice
Test: LPS-induced acute lung injury in mice, inflammatory factors in lung tissue homogenate
Assay type: in vivo
Conditions: 50 mg/kg intraperitoneal, 7 days, left lung homogenate, mean±SD; listed as dexamethasone

C[C@@H]1C[C@H]2[C@@H]3CCC4=CC(=O)C=C[C@]4(C)[C@@]3(F)[C@@H](O)C[C@]2(C)[C@@]1(O)C(=O)CO [Dexamethasone, dexamethasone]
significantly reduced: IL-6 | IL-8 | TNF-α | Tp (Total protein)

From patent publication US20200206257A1, “HOMOGENEOUS POLY[…]-B4, DERIVED FROM HERBA EPHEDRA, PREPARATION METHOD AND MEDICAL USE THEREOF” (priority 2018, published 2020)
